Data from US6511970B1, “Prevention of ovarian cancer by administration of products that induce transforming growth factor-beta and/or apoptosis in the ovarian epithelium” (New Life Pharmaceuticals Inc., priority 1996, dated 2003).
At least one structure is not confirmed: it was looked up by name or label, or the drawing left a doubt. Some entries share one result that the patent states for a list of compounds.

Columns and labels:
ovarian epithelial cells = experiment: Apoptosis in monkey ovarian surface epithelium in vivo (Apoptag-plus staining); set-up: species or system cynomolgus monkeys; settings: progestin alone group vs control
Source text: Young female adult cynomolgus monkeys were fed a diet for three years that contained either no hormones, the oral combination contraceptive “[…],” the estrogenic component of “[…] estradiol) alone, or the progestin component of “[…]” (levonorgestrel) alone, each administered in the same pattern that occurs in a “[…]” regimen. Doses were scaled on the basis of caloric intake, which is the accepted way to achieve human-equivalent doses. […] This cyclic regimen was repeated every 28 days continuously for 2 years. At the completion of the two years of the study, the animals were sacrificed, and their ovaries were removed and both formalin-fixed and paraffin embedded as well as flash frozen and stored at minus 70 degrees Celsius. Five-micron ovarian sections were mounted on coated slides, and stained with the Apoptag-plus kit (Oncor, Gaithersburg, Md.), which specifically labels the 3' end of free DNA fragments in cells undergoing DNA fragmentation, a characteristic of apoptosis. After staining, cells undergoing apoptosis were easily identified by their dark brown nuclear discoloration. […] To calculate the percentage of ovarian epithelial cells undergoing apoptosis, both the total number of ovarian epithelial cells and the number undergoing apoptosis were counted on each five-micron ovarian section. […]

TGF beta-3 = TGF beta-3 immunohistochemical staining in monkey ovarian epithelium; format: in vivo, cynomolgus monkeys; settings: versus both controls and estrogen-only treated monkeys
Source text: Young female adult cynomolgus monkeys were fed a diet for three years that contained either no hormones, the oral combination contraceptive “[…],” the estrogenic component of “[…] estradiol) alone, or the progestin component of “[…]” (levonorgestrel) alone, each administered in the same pattern that occurs in a “[…]” regimen. Doses were scaled on the basis of caloric intake, which is the accepted way to achieve human-equivalent doses. […] This cyclic regimen was repeated every 28 days continuously for 2 years. In a similar experiment, the effect of hormone treatment on expression of TGF-β3 was examined in the ovaries of primates from the trial described above. This study uses monkeys that were randomized in the study above of apoptosis in the ovarian epithelium. […] Ovarian sections from each of the monkeys were stained immunohistochemically for expression of TGF beta-3, using an anti-TGF-beta-3 monoclonal antibody. […] Two blinded observers then quantitated degree of expression of TGF-β3 by grading the intensity of staining on a scale of 1-4+ in several ovarian compartments: 1) epithelium, 2) oocytes, 3) endothelial cells, 4) granulosa cells. The staining was characterized as negative (0-2+) versus positive (3-4+). […]

M-100 cells = experiment: DNA ladder electrophoresis in M-100 cells; format: cell-based, human; settings: 100 uM; 12, 24, 48, 72 and 96 hours
[1] = tested on: avian ovarian epithelial cells; experiment: DNA ladder electrophoresis in avian ovarian epithelial cell cultures; format: cell-based, domestic hens; settings: 100 uM, 96 hours
[2] = cited from earlier work
[3] = several standard screening tests; cited from earlier work

Row | SMILES | median percentage of cells undergoing apoptosis relative to control, untreated monkeys (ovarian epithelial cells) | expression of TGF beta-3 in ovarian epithelial cells (in words) (TGF beta-3) | DNA ladders indicative of apoptosis (M-100 cells) | DNA ladder indicative of apoptosis [1] | androgenic activity (in words) [2] | estrogenic activity (in words) [2] | potency relative to first- or second-generation retinoids [3]
1 | C#C[C@]1(O)CC[C@H]2[C@@H]3CCC4=CC(=O)CC[C@@H]4[C@H]3CC[C@@]21CC [Levonorgestrel, levonorgestrel] | over six times greater | significant increase in expression | DNA ladders indicative of apoptosis were observed at 48, 72 and 96 hours | A DNA ladder indicative of apoptosis was observed | does have androgenic activity | no estrogenic activity | 
2 | CCOC(=O)c1ccc(/C=C(\C)c2ccc3c(c2)C(C)(C)CCC3(C)C)cc1 [R013-6298] |  |  |  |  |  |  | over 1000 times
